In article PMC8684721:
No constants are given. Whether binding was seen depends on the method and setting. Binding seen in cells or lysates may run through a third protein. Some results given as binding are weak or reduced against the parent protein; the word gives no strength.

Chains of the proteins cited; added tags and fusions are not shown.
UniProt P02340: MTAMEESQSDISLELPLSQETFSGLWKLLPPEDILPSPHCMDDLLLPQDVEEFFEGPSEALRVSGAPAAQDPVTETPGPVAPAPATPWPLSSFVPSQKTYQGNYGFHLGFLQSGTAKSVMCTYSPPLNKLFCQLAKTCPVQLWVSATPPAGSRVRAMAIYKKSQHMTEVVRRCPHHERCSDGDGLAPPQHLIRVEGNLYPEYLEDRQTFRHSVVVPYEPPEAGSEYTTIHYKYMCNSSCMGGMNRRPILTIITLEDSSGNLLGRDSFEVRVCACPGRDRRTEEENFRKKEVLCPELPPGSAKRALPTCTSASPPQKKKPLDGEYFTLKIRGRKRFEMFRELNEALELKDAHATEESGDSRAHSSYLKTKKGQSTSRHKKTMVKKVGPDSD

T1: F-box protein 9 (FBXO9) (mouse (endogenous in BMDM-derived osteoclasts; species of the cells not stated by the paper)) (UniProt Q8BK06)
T1 sequence: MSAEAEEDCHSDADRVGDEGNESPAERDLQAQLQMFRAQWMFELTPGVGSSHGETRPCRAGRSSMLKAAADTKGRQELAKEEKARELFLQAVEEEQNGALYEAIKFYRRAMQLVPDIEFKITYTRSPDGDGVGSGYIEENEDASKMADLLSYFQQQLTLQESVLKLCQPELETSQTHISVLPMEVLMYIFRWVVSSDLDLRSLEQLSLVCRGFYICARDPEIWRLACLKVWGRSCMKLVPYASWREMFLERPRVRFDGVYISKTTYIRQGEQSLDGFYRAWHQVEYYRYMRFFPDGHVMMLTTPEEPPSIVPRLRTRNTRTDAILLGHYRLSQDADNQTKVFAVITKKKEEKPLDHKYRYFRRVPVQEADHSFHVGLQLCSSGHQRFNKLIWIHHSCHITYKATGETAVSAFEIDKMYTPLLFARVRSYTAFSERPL


What was measured:
[1] = molecular target: T1, F-box protein 9 (FBXO9) (mouse (endogenous in BMDM-derived osteoclasts; species of the cells not stated by the paper)); assay: co-IP; reciprocal co-IP from lysates of BMDMs-induced osteoclasts in NP40 buffer (10 mM Tris-HCl pH 8.0, 140 mM NaCl, 1.5 mM MgCl2, 0.5% Nonidet-P40, 20 mM dithiothreitol, 0.5% deoxycholate); FBXO9 or p53 antibody (2 ug/ml) for 4 h, Protein A/G beads overnight at 4 C; western blot with FBXO9 or p53 antibody; IgG as control
[2] = molecular target: p53 (mouse (endogenous in BMDM-derived osteoclasts; species of the cells not stated by the paper)) (UniProt P02340); assay: as above

binding [1] | binding [2] | Molecule
binds |  | p53 (from UniProt P02340 1-390)
 | binds | F-box protein 9 (FBXO9) (protein, UniProt Q8BK06 1-437) MSAEAEEDCHSDADRVGDEGNESPAERDLQAQLQMFRAQWMFELTPGVGSSHGETRPCRAGRSSMLKAAADTKGRQELAKEEKARELFLQAVEEEQNGALYEAIKFYRRAMQLVPDIEFKITYTRSPDGDGVGSGYIEENEDASKMADLLSYFQQQLTLQESVLKLCQPELETSQTHISVLPMEVLMYIFRWVVSSDLDLRSLEQLSLVCRGFYICARDPEIWRLACLKVWGRSCMKLVPYASWREMFLERPRVRFDGVYISKTTYIRQGEQSLDGFYRAWHQVEYYRYMRFFPDGHVMMLTTPEEPPSIVPRLRTRNTRTDAILLGHYRLSQDADNQTKVFAVITKKKEEKPLDHKYRYFRRVPVQEADHSFHVGLQLCSSGHQRFNKLIWIHHSCHITYKATGETAVSAFEIDKMYTPLLFARVRSYTAFSERPL
